# According to PMC12167490:
# The exact form of at least one protein or probe is not confirmed.
# System: SIRT6-WT
# Test: EMSA
# Details: 50 nM DNA, larger shift beginning at 2.0 uM SIRT6, EMSA: 50 mM Tris pH 7.5, 20 mM NaCl, 2 mM MgCl2, 2 mM DTT, RT 15 min, 10 ul, 5% TBE gel, recombinant protein, protein details: tag cleaved with ULP1 (untagged), label: none (ethidium bromide stain)
sequence,measurement,value
CTACTGGTACGGCAGACAGGATGTATATATCTGACACGTGCCTGGAGACTAGGGAGTAATCCCCTTGGCGGTTAAAACGCGGGGGACAGCGCGTACGTGCGTTTAAGCGGTGCTAGAGCTGTCTACGACCAATTGAGCGGCCTCGGCACCGGGATTCTCCAGTATTCGAGGCCGTTC (double strand) [ds601 DNA (177 bp)],binding result,binds
